This note sets out measurements from article PMC11552376, “Specific binding between Arabidopsis thaliana phytochrome-interacting factor 3 (AtPIF3) bHLH and G-box originated prior to embryophyte emergence” (BMC Plant Biology, 2024).

Amino acid sequences for entries named in this document (tags omitted). A change or cut given only in a name is not applied to a line headed by its entry.
UniProt O80536: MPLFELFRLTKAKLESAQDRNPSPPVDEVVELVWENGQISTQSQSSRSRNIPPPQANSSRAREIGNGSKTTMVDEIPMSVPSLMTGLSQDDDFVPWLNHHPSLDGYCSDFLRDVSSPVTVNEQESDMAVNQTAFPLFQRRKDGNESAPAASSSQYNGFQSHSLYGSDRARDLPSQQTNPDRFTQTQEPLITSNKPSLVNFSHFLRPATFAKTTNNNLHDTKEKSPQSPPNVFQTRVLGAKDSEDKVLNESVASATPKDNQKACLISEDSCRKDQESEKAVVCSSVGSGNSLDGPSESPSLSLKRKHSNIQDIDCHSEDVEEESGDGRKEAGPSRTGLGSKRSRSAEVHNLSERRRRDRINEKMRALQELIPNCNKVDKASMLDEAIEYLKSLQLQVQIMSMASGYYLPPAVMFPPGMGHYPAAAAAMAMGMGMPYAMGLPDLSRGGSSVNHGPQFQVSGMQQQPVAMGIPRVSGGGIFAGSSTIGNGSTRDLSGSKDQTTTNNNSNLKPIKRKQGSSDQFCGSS

Series [1] addresses T1, AtPIF3-bHLH R356A (Arabidopsis thaliana) (UniProt O80536).
T1 sequence (looked up, limits assumed): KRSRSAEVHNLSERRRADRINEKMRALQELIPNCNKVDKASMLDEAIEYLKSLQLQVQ
Briefly: EMSA. The following applies: unbound DNA remains at DNA:protein 1:10; fEMSA: 30 mM HEPES, 500 mM NaCl, pH 7.4, on ice 30 min, 3 uM probe, 10% native gel in 0.5x TBE at 4 C; recombinant protein; protein details: C-terminal His6; label: 5' fluorescein; only the site is given. (A gel shift assay detects complexes by their altered migration in electrophoresis.)

Series [2] addresses T2, AtPIF3-bHLH H348A (Arabidopsis thaliana) (UniProt O80536).
T2 sequence (looked up, limits assumed): T1 sequence (looked up, limits assumed) with H9A, A17R
Briefly: EMSA. Particulars: unbound DNA remains at DNA:protein 1:10; fEMSA: 30 mM HEPES, 500 mM NaCl, pH 7.4, on ice 30 min, 3 uM probe, 10% native gel in 0.5x TBE at 4 C; recombinant protein; protein details: C-terminal His6; label: 5' fluorescein; only the site is given.

Positions count from the first letter of the chain named. Construct, isoform or probe ends are uncertain for at least one entry. Weaker means in comparison with the reference protein, sequence or condition of that experiment. Tags and fusion partners may be left off the protein sequences shown.

As to “GCATTCACGTGAAGT (double strand) [pPIL1 G-box]”, the binding result in series [1] and in series [2] was “binds more weakly” each time.
